From PMC7954791, “MAGIs regulate aPKC to enable balanced distribution of intercellular tension for epithelial sheet homeostasis” (Communications Biology, 2021)
These are yes or no findings as the source states them, for the method shown. In cells and extracts the contact can be indirect.

Molecular target: T1, MAGI-3 (UniProt Q9EQJ9)
T1 sequence: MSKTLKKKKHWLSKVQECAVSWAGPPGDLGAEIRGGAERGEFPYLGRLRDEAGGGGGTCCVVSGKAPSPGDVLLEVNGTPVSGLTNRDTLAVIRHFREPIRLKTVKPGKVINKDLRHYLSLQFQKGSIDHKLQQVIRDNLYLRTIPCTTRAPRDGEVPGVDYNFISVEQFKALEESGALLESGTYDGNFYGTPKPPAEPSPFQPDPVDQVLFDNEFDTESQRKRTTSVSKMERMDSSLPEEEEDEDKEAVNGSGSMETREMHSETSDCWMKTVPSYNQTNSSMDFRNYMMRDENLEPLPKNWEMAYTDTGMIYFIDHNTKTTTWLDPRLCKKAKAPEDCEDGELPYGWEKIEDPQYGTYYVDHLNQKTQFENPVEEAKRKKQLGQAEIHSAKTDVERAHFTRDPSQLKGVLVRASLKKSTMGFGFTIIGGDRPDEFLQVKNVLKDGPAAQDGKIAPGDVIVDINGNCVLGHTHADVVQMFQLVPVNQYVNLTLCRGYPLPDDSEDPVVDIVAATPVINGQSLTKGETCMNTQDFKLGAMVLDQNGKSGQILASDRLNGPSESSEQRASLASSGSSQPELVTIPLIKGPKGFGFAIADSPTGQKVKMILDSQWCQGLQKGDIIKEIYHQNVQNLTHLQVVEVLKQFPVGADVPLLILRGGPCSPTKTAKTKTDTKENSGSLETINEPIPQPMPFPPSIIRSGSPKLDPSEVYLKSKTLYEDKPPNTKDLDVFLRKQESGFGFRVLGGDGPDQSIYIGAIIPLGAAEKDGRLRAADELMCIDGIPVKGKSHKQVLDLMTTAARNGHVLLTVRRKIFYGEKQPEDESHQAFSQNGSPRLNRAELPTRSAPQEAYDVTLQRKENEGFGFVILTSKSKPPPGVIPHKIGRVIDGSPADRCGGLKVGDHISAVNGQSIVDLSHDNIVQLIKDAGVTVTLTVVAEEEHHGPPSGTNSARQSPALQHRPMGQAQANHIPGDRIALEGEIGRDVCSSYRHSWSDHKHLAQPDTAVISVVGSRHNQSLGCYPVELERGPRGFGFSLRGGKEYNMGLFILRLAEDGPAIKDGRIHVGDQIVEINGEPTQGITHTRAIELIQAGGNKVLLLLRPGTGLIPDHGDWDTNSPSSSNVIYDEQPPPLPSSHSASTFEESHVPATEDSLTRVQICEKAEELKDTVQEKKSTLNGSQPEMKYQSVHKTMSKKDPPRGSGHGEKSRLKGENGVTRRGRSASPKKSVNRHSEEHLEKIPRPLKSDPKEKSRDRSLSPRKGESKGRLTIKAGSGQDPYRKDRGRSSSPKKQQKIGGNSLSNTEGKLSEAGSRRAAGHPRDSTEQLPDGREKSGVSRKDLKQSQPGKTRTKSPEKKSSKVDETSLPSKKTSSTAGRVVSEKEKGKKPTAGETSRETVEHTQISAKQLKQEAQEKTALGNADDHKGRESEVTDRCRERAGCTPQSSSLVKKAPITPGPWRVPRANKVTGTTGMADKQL
Assay: co-IP; FLAG immunoprecipitation in a heterologous expression system; anti-DYKDDDDK mAb beads 2 h; 20 mM Tris-HCl pH 7.5, 150 mM NaCl, 1% Triton X-100; blots with anti-FLAG, anti-HA, anti-GFP

- binding: no binding
Substance: RASSF10 ΔPDZ (domain or fragment)
